The list is a part of this screen's results and no random one: it gathers tests that were run many times, whatever their T/C, doses with no T/C, and many T/C values between a quarter and a half above the control. Other doses and runs of a compound stand elsewhere. T/C gives the treated animals as a percentage of the vehicle group. Some doses have a count of surviving animals in place of a T/C: the source holds a T/C of zero for them, seemingly a mark for toxic or unscored doses. Some survivor counts are full or nearly so, which does not show that the dose was tolerated: survival well below the control is almost never listed, so the zero probably covers shortened survival too. Survivors were counted at the toxicity check, usually on the fifth day, unless a day is given; later deaths do not show. Schedules are NCI's codes, read here as Q, the interval in days (D) or hours (H), X, the number of doses. Some schedule codes hold Z or #, which are not explained here. Some entries were tested several times; the results are listed from low to high. Where survival is the endpoint, this PubChem deposit counts one and a half times the control or more as active, and values a quarter to a half above the control carry no call in these data; other NCI protocols may use other cut-offs. Counts like (3×) say how often a value occurs here.
System: BDF1 mice, L1210/MTX-resistant leukemia ip, survival T/C
Test: NCI In Vivo Anticancer Drug Screen. Data for tumor model L1210 Leukemia resistant to Methotrexate; NSC 740 (intraperitoneal) in B6D2F1 (BDF1) mice
Conditions: T/C endpoint: mean survival time, higher T/C = longer survival
Method: The antitumor activity of compounds was measured in mice bearing transplantable tumors. Survival or tumor size were measured and the results are expressed as the measurement made in the treated group (T) divided by the measurement made in the vehicle treated control group (C). The tumor model used in this assay is L1210 Leukemia resistant to Methotrexate; NSC 740 (intraperitoneal) in B6D2F1 (BDF1) mice

[1] = dose: 25.0 mg/kg/injection, schedule: Q01DX Z (ip), vehicle: carboxymethylcellulose (CMC)
[2] = dose: 6.3 mg/kg/injection, schedule: Q01DX Z (ip), vehicle: methylcellulose (MC)
[3] = dose: 12.5 mg/kg/injection, schedule: Q01DX Z (ip), vehicle: methylcellulose (MC)
[4] = dose: 50.0 mg/kg/injection, schedule: Q01DX010 (ip), vehicle: saline
[5] = dose: 50.0 mg/kg/injection, schedule: Q01DX Z (ip), vehicle: saline
[6] = dose: 8.0 mg/kg/injection, schedule: Q01DX010 (ip), vehicle: saline
[7] = dose: 62.5 mg/kg/injection, schedule: Q01DX010 (ip), vehicle: saline
[8] = dose: 125.0 mg/kg/injection, schedule: Q01DX010 (ip), vehicle: saline

## CC[C@]1(O)C[C@H]2CN(CCc3c([nH]c4ccccc34)[C@@](C(=O)OC)(c3cc4c(cc3OC)N(C=O)[C@H]3[C@@](O)(C(=O)OC)[C@H](OC(C)=O)[C@]5(CC)C=CCN6CC[C@]43[C@@H]65)C2)C1
dose: 0.5 mg/kg/injection, schedule: Q01DX010 (ip), vehicle: saline
  survivor count: 6 of 6

## CC(CCC(C)OS(C)(=O)=O)OS(C)(=O)=O (stereo not drawn)
[1]
  survivor count: 6 of 6

## CCCCn1cnc2c(=S)nc[nH]c21
dose: 128.0 mg/kg/injection, schedule: Q01DX010 (ip), vehicle: saline
  survivor count: 6 of 6

## CC(=O)Nc1ccc2nc3ccc(NC(C)=O)cc3[n+](-c3ccccc3)c2c1
dose: 1.0 mg/kg/injection, schedule: Q01DX Z (ip), vehicle: carboxymethylcellulose (CMC)
  survivor count: 6 of 6
[1]
  survivor count: 6 of 6
dose: 50.0 mg/kg/injection, schedule: Q01DX Z (ip), vehicle: carboxymethylcellulose (CMC)
  survivor count: 6 of 6
dose: 75.0 mg/kg/injection, schedule: Q01DX Z (ip), vehicle: carboxymethylcellulose (CMC)
  survivor count: 6 of 6
dose: 100.0 mg/kg/injection, schedule: Q01DX Z (ip), vehicle: carboxymethylcellulose (CMC)
  survivor count: 5 of 6

## Nc1nc(=S)c2[nH]cnc2[nH]1
dose: 2.5 mg/kg/injection, schedule: Q01DX010 (ip), vehicle: saline
  survivor count: 6 of 6
dose: 5.0 mg/kg/injection, schedule: Q01DX010 (ip), vehicle: saline
  survivor count: 6 of 6
dose: 10.0 mg/kg/injection, schedule: Q01DX010 (ip), vehicle: saline
  survivor count: 6 of 6
dose: 20.0 mg/kg/injection, schedule: Q01DX Z (ip), vehicle: carboxymethylcellulose (CMC)
  survivor count: 6 of 6

## O=C(Nc1ccc(C2=NCCN2)cc1)c1ccc(C(=O)Nc2ccc(C3=NCCN3)cc2)cc1
dose: 40.0 mg/kg/injection, schedule: Q01DX Z (ip), vehicle: methylcellulose (MC)
  T/C: 144 % of control

## [I][Hg][CH2]C1COC([CH2][Hg][I])CO1 (stereo not drawn)
dose: 3.2 mg/kg/injection, schedule: Q01DX Z (ip), vehicle: methylcellulose (MC)
  survivor count: 5 of 6 and 6 of 6
[2]
  survivor count: 5 of 6
[3]
  survivor count: 5 of 6
dose: 25.0 mg/kg/injection, schedule: Q01DX010 (ip), vehicle: saline
  survivor count: 5 of 6
[4]
  survivor count: 2 of 6

## O=NN(CCCl)C(=O)NCCCl
dose: 12.5 mg/kg/injection, schedule: Q01DX010 (ip), vehicle: saline
  T/C: 125 % of control
[4]
  survivor count: 3 of 6 and 5 of 6

## O=P1(N(CCCl)CCCl)NCCCO1 (stereo not drawn)
dose: 22.5 mg/kg/injection, schedule: Q01DX010 (ip), vehicle: saline
  T/C: 133 % of control
dose: 22.5 mg/kg/injection, schedule: Q01DX Z (ip), vehicle: saline
  T/C: 125 % of control
dose: 25.0 mg/kg/injection, schedule: Q01DX Z (ip), vehicle: saline
  T/C: 112, 117, 130 (2×), 144, 151, 186 % of control
dose: 45.0 mg/kg/injection, schedule: Q01DX Z (ip), vehicle: saline
  T/C: 129 and 131 % of control
[5]
  T/C: 86, 113, 117 (2×), 130 (2×), 142, 171 % of control
  survivor count: 6 of 6
dose: 90.0 mg/kg/injection, schedule: Q01DX Z (ip), vehicle: saline
  survivor count: 6 of 6
dose: 100.0 mg/kg/injection, schedule: Q01DX Z (ip), vehicle: saline
  survivor count: 6 of 6
dose: 180.0 mg/kg/injection, schedule: Q01DX010 (ip), vehicle: saline
  survivor count: 6 of 6
dose: 400.0 mg/kg/injection, schedule: Q01DX Z (ip), vehicle: saline
  survivor count: 6 of 6

## C[C@]12C=CC(=O)C=C1CC[C@@H]1[C@@H]2C(=O)C[C@@]2(C)[C@H]1CC[C@]2(O)C(=O)CO
dose: 12.5 mg/kg/injection, schedule: Q01DX010 (sc), vehicle: steroid suspending solution
  survivor count: 6 of 6
dose: 50.0 mg/kg/injection, schedule: Q01DX010 (sc), vehicle: steroid suspending solution
  survivor count: 6 of 6
dose: 100.0 mg/kg/injection, schedule: Q01DX010 (sc), vehicle: steroid suspending solution
  survivor count: 6 of 6
dose: 200.0 mg/kg/injection, schedule: Q01DX010 (sc), vehicle: steroid suspending solution
  survivor count: 5 of 6

## CCN(CC)c1ccc2cc3ccc(=[N+](CC)CC)cc-3oc2c1
[6]
  survivor count: 6 of 6

## C=CC(CN1CC1)OC(C)=O (stereo not drawn)
dose: 4.0 mg/kg/injection, schedule: Q01DX010 (ip), vehicle: saline
  T/C: 128 % of control
[6]
  T/C: 132 % of control
dose: 16.0 mg/kg/injection, schedule: Q01DX010 (ip), vehicle: saline
  survivor count: 5 of 6

## O=c1[nH]c(=O)n(C2CC(O)C(CO)O2)cc1Br (stereo not drawn)
dose: 62.5 mg/kg/injection, schedule: Q01DX Z (ip), vehicle: carboxymethylcellulose (CMC)
  survivor count: 5 of 6
dose: 125.0 mg/kg/injection, schedule: Q01DX Z (ip), vehicle: carboxymethylcellulose (CMC)
  survivor count: 6 of 6
dose: 250.0 mg/kg/injection, schedule: Q01DX Z (ip), vehicle: carboxymethylcellulose (CMC)
  survivor count: 6 of 6
dose: 500.0 mg/kg/injection, schedule: Q01DX Z (ip), vehicle: carboxymethylcellulose (CMC)
  survivor count: 5 of 6

## N[C@@H](Cc1ccc(N(CCCl)CCCl)cc1)C(=O)O
dose: 12.0 mg/kg/injection, schedule: Q01DX Z (ip), vehicle: carboxymethylcellulose (CMC)
  survivor count: 6 of 6

## CC1CCOS(=O)O1 (stereo not drawn)
dose: 80.0 mg/kg/injection, schedule: Q01DX010 (ip), vehicle: saline
  survivor count: 6 of 6

## CCCCNc1ncnc2c1cnn2C
[7]
  survivor count: 6 of 6
[8]
  survivor count: 5 of 6
dose: 250.0 mg/kg/injection, schedule: Q01DX010 (ip), vehicle: saline
  survivor count: 0 of 6

## Nc1nc(F)nc2c1ncn2C1OC(CO)C(O)C1O (stereo not drawn)
dose: 0.18 mg/kg/injection, schedule: Q01DX Z (ip), vehicle: saline
  T/C: 134 % of control
dose: 0.37 mg/kg/injection, schedule: Q01DX Z (ip), vehicle: saline
  T/C: 140 % of control
dose: 0.5 mg/kg/injection, schedule: Q01DX Z (ip), vehicle: saline
  T/C: 130 % of control

## O=C(CCBr)N1CCN(C(=O)CCBr)CC1
[2]
  survivor count: 5 of 6
[3]
  survivor count: 5 of 6
dose: 25.0 mg/kg/injection, schedule: Q01DX Z (ip), vehicle: methylcellulose (MC)
  survivor count: 5 of 6

## Nc1nc(N)c2nc(CN(CCO)c3ccc(C(=O)NC(CCC(=O)O)C(=O)O)cc3)cnc2n1 (stereo not drawn)
dose: 1.0 mg/kg/injection, schedule: Q01DX009 (ip), vehicle: sodium bicarbonate
  survivor count: 6 of 6
dose: 2.0 mg/kg/injection, schedule: Q01DX009 (ip), vehicle: sodium bicarbonate
  survivor count: 6 of 6
dose: 4.0 mg/kg/injection, schedule: Q01DX009 (ip), vehicle: sodium bicarbonate
  survivor count: 6 of 6
dose: 8.0 mg/kg/injection, schedule: Q01DX009 (ip), vehicle: sodium bicarbonate
  survivor count: 6 of 6
dose: 16.0 mg/kg/injection, schedule: Q01DX009 (ip), vehicle: sodium bicarbonate
  survivor count: 6 of 6

## N#[N+]c1cnc([O-])[nH]c1=O
dose: 0.63 mg/kg/injection, schedule: Q01DX Z (ip), vehicle: methylcellulose (MC)
  survivor count: 6 of 6
dose: 1.25 mg/kg/injection, schedule: Q01DX Z (ip), vehicle: methylcellulose (MC)
  survivor count: 6 of 6
dose: 2.5 mg/kg/injection, schedule: Q01DX Z (ip), vehicle: methylcellulose (MC)
  survivor count: 6 of 6

## Cn1cnc([N+](=O)[O-])c1Sc1nc(N)nc2nc[nH]c12
dose: 2.0 mg/kg/injection, schedule: Q01DX Z (ip), vehicle: methylcellulose (MC)
  T/C: 131 % of control
dose: 4.0 mg/kg/injection, schedule: Q01DX Z (ip), vehicle: methylcellulose (MC)
  T/C: 134 % of control
dose: 8.0 mg/kg/injection, schedule: Q01DX Z (ip), vehicle: methylcellulose (MC)
  survivor count: 6 of 6

## CN(C)C(=S)N=Nc1c(O)[nH]c2ccccc12
[1]
  T/C: 133 % of control
dose: 200.0 mg/kg/injection, schedule: Q01DX Z (ip), vehicle: carboxymethylcellulose (CMC)
  survivor count: 5 of 6

## O=c1cn[nH]c(=O)[nH]1
[7]
  survivor count: 6 of 6
[8]
  survivor count: 6 of 6

Reference: PubChem BioAssay AID284 (DTP/NCI, 2004)
